# Experimental data as given in PubChem BioAssay AID504467 (National Center for Advancing Translational Sciences (NCATS), 2011).
# Hit rate of the full screen: of about 330,000 compounds, about 7,700 (2.3%) were called active. Inconclusive results, whose numbers are uncertain, are shown with a selection of clear calls. The call rests on the fitted dose curve; in most records, active means well fitted inhibition curve with a large enough effect; inconclusive means small, poorly fitted or top-dose-only effect, or effect the other way; inactive means flat fitted curve, though single readings scatter. Potencies beside an inconclusive call are fits to weak or partial responses and may not hold up.
# Assay: qHTS screen for small molecules that inhibit ELG1-dependent DNA repair in human embryonic kidney (HEK293T) cells expressing luciferase-tagged ELG1; further: nearly all actives have a fitted effect of over 55% in size
# Conditions: HEK293T ELG1-luciferase reporter, luminescence, 16 h, DNA damage induced by 5-fluorouridine; series mostly up to 46.1 µM
# Outline: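 Overnight (16 hr) co-exposure of 2,000 cells/well to 5-fluorouridine and compound at 37 °C preceded detection. Luciferase was quantified via ONE-Glo luminescence; loss of signal denotes inhibition.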
# Potency means the concentration at half of the fitted maximal effect.
row,SMILES,Potency
1,CN(Cc1ccccc1)C(=O)c1[nH]cnc1C(=O)N[C@@H](CCCCNC(=O)OC(C)(C)C)C(=O)OC(C)(C)C,"inconclusive: 20.6 µM [inhibitor, partial curve, poor fit]"
2,Cc1nc2ncnn2c(N2CCCC(C(=O)Nc3ccc4c(c3)CCC4)C2)c1C (stereo not given),active: 17.8 µM
3,Cc1cc2c(C)c(C)c(=O)[nH]c2cc1N,"inconclusive: 20.6 µM [activator, partial curve]"
4,Cc1ccc(CNn2cnnc2SCc2ccc(F)cc2)cc1,"inconclusive: 0.0651 µM [inhibitor, full curve, poor fit]"
5,O=C(Nc1ccc2nc(-c3cccs3)[nH]c2c1)c1ccco1,"inconclusive: 4.11 µM [activator, single point]"
6,O=C(Cc1cccs1)Nc1nc(-c2ccc(F)cc2F)cs1,"inconclusive: 29.1 µM [inhibitor, single point]"
7,CCOc1ccc(N/C=C/C(=O)c2ccc(OC)c(OC)c2)cc1,"inconclusive: 10.3 µM [activator, partial curve]"
8,COc1ccc(/C=N/NS(=O)(=O)c2ccc(F)cc2)cc1CN1CCSCC1,inactive
9,CCOC(=O)c1cnc2ccccc2c1Nc1cccc(C(=O)O)c1,inactive
10,Cc1nc(/C=C/c2ccccc2)cc(/C=C/c2ccccc2)n1,inactive
11,O=C(NCCc1csc(-c2ccc(Cl)cc2)n1)c1ccco1,"inconclusive: 23.1 µM [inhibitor, partial curve]"
12,Cn1c(=O)cc(OCCCC(=O)Nc2ccc3c(c2)OCCO3)c2ccccc21,"inconclusive: 16.4 µM [activator, partial curve]"
13,Cc1ccc(/C=C/C(=O)Nc2cccnc2)o1,"inconclusive: 16.4 µM [activator, partial curve]"
14,Cc1ccc(-c2csc(N(CCc3ccccc3)C(=O)COc3ccccc3)n2)cc1,inactive
15,O=C(N/N=C/C=C\c1ccccc1[N+](=O)[O-])c1cc(-c2ccccc2)nc2ccccc12,"inconclusive: 32.6 µM [inhibitor, single point]"
16,c1ccc(C2=Nc3ccccc3NC(c3ccccc3)C2)cc1 (stereo not given),"inconclusive: 7.31 µM [activator, partial curve]"
17,COCC(C)n1c(C)cc(C(=O)CSc2ccc(NC(C)=O)cc2)c1C (stereo not given),"inconclusive: 11.6 µM [activator, partial curve]"
18,c1ccc(Oc2ccc(-c3ccn[nH]3)cc2)cc1,"inconclusive: 11.6 µM [activator, partial curve]"
19,CCCN(C(=O)C(=O)Nc1ccc2nc3n(c(=O)c2c1)CCCCC3)c1ccc(OCC)cc1,"inconclusive: 18.3 µM [inhibitor, single point]"
20,CCc1ccccc1N1CCN(S(=O)(=O)c2ccc(F)c(C)c2)CC1,"inconclusive: 9.2 µM [inhibitor, single point]"
21,O=C(c1ccccc1)C1CN(Cc2ccccc2)CCC1(O)c1ccccc1 (stereo not given),inactive
22,CCS(=O)(=O)c1ccc(O)c(NC(=O)c2cc(OC)c(OC)c(OC)c2)c1,"inconclusive: 18.4 µM [activator, single point]"

# Part of the list above, with bars between the fields.
row | SMILES | Potency
3 | Cc1cc2c(C)c(C)c(=O)[nH]c2cc1N | inconclusive: 20.6 µM [activator, partial curve]
20 | CCc1ccccc1N1CCN(S(=O)(=O)c2ccc(F)c(C)c2)CC1 | inconclusive: 9.2 µM [inhibitor, single point]

# Following part:

row,SMILES,Potency
1,Cc1ccc(/C=N/NC(=O)c2n[nH]c3c2CCCC3)cc1,"inconclusive: 9.2 µM [activator, partial curve]"
2,CCOC(=O)C1CCCN(C(=O)Cn2nc(Cc3cccnc3)c3ccccc3c2=O)C1 (stereo not given),inactive
3,CCOc1ccc2nc(NC(=O)CSc3nc4cccnc4n3C)sc2c1,inactive
4,COc1cccc(NC(=O)c2ccc3c(c2)C(=O)N(CC2CCCO2)C3=O)c1 (stereo not given),inactive
5,O=C(COc1ccc(Cl)cc1Br)NC1CC1,"inconclusive: 18.3 µM [activator, partial curve]"
6,Clc1ccc(C[n+]2cc(-c3ccccc3)n3c2CCCCC3)c(Cl)c1,"inconclusive: 9.2 µM [inhibitor, partial curve]"
7,Cc1cc(C(=O)CN2CCCCC2)c(C)n1-c1ccc(F)cc1,"inconclusive: 18.4 µM [activator, partial curve]"
8,CCC(=O)Nc1c(-c2ccccc2Cl)c(=O)c2ccccc2n1C,inactive
9,COc1ccc(/C=C/C(=O)NCc2cccnc2)cc1,"inconclusive: 29.1 µM [activator, single point]"
10,CCOC(=O)CN(C(=O)CSc1nnc(CNc2ccc(F)cc2)o1)c1ccccc1,"inconclusive: 20.6 µM [inhibitor, single point]"
11,O=C(C1=C[C@H](c2coc3ccccc3c2=O)C[C@H](OCCCCO)O1)N1CCN(Cc2ccc3c(c2)OCO3)CC1,"inconclusive: 25.9 µM [inhibitor, single point]"
12,CCOC(=O)/C(=N\Nc1ncnc2ccccc12)c1ccc(C)cc1,"inconclusive: 2.59 µM [activator, partial curve]"
13,COc1ccc(NC(=O)CN(C)S(=O)(=O)c2cccs2)cc1,"inconclusive: 4.11 µM [activator, single point]"
14,COc1ccc(CN(C)C[C@H]2Oc3c(NC(=O)Nc4ccccc4)cccc3C(=O)N([C@H](C)CO)C[C@@H]2C)cc1,"inconclusive: 25.9 µM [inhibitor, partial curve]"
15,COc1cccc(-n2ccnc2SCC(=O)Nc2cc(OC)ccc2OC)c1,"inconclusive: 29.1 µM [inhibitor, single point]"
16,Cc1cc(C(=O)Nc2ccc3c(c2)CCC3)c2ccccc2n1,"inconclusive: 4.11 µM [activator, full curve, poor fit]"
17,COC(=O)[C@]1(C)N[C@H](c2ccc(SC3CCCCC3)c(OC)c2)[C@@H]2C(=O)N(C)C(=O)[C@@H]21,inactive
18,CCC(C)[C@H](NC(=O)N1CC(=O)Nc2ccccc21)C(=O)N[C@H](C(=O)O)c1ccccc1 (stereo not given in full),"inconclusive: 23.1 µM [activator, partial curve, poor fit]"
19,O=C(CSc1nnc(-c2ccncc2)o1)NC1C2CC3CC(C2)CC1C3 (stereo not given),"inconclusive: 14.6 µM [inhibitor, partial curve]"
20,COc1cc(C(=O)Nc2ccc(C)cc2C(NCC(=O)NN)c2ccccc2)cc(OC)c1OC (stereo not given),"inconclusive: 16.4 µM [activator, partial curve, poor fit]"
21,Nc1ncc(Br)cc1S(=O)(=O)NCCC(=O)N1CCN(c2ccccn2)CC1,"inconclusive: 18.4 µM [inhibitor, single point]"
22,CCCc1ccc(C(=O)/C=C/N(C)C)cc1,"inconclusive: 11.6 µM [activator, partial curve]"

row,SMILES,Potency
1,CCOC(=O)c1c(C)[nH]c(C(=O)OCC(=O)c2ccccc2)c1C,"inconclusive: 1.83 µM [activator, full curve]"
2,COc1cc(/C=N/Nc2nc(C)nc3c2cnn3-c2ccccc2)ccc1O,active: 16.4 µM
3,NNC(=O)c1sc(-c2ccc(Cl)cc2)cc1N,"inconclusive: 11.6 µM [activator, partial curve]"
4,CSc1ccc(-c2sc(Nc3ccccc3)n[n+]2-c2ccc(F)cc2)cc1,inactive
5,CC(=O)Nc1ccc(S[C@@H](CCN2CC[C@H](C(C)(C)C)CCC2=O)c2ccccc2)cc1,"inconclusive: 29.1 µM [inhibitor, single point]"
6,Nc1nc2ccccc2cc1-c1cccs1,"inconclusive: 7.3 µM [activator, partial curve]"
7,CCN1CCN(Cc2ccc(NC(=O)c3ccc(C)c(NC(=O)c4csc(-c5ccncc5)n4)c3)cc2C(F)(F)F)CC1,"inconclusive: 2.91 µM [inhibitor, full curve, poor fit]"
8,COc1cc(/C=C2/SC(=S)N(CC(=O)O)C2=O)ccc1OCC(=O)Nc1ccc(C)c(C)c1,inactive
9,Cc1c(C(=O)/C=C/c2cccs2)oc2ccc(F)cc12,"inconclusive: 18.4 µM [activator, partial curve]"
10,O=c1c2c(-c3ccccc3)csc2ncn1/N=C/c1c2ccccc2cc2ccccc12,"inconclusive: 23.1 µM [inhibitor, partial curve, poor fit]"
11,CCOc1ccc(N(CC(=O)Nc2cccc(C)c2)S(C)(=O)=O)cc1,"inconclusive: 11.6 µM [activator, partial curve]"
12,COc1ccc(-c2cn(-c3ccccc3)nc2CO)cc1,"inconclusive: 18.3 µM [activator, partial curve]"
13,COc1ccc2cc(C(=O)COC(=O)COc3ccc4c(C)cc(=O)oc4c3)ccc2c1,"inconclusive: 32.6 µM [activator, partial curve, poor fit]"
14,Cc1ccc(CC2CC(=O)N(CCc3ccc4c(c3)OCO4)C2=O)cc1 (stereo not given),"inconclusive: 35.5 µM [inhibitor, single point]"
15,CC(C)[C@H](NC(=O)c1ccc(C(C)(C)C)cc1)C(=O)N1CCN(Cc2ccc3c(c2)OCO3)CC1,active: 16.4 µM
16,CCN(CC(=O)NC(C)C)Cc1nc2sc3c(c2c(=O)[nH]1)CCC3,"inconclusive: 20.6 µM [inhibitor, partial curve]"
17,CCn1c(COc2ccccc2C)nnc1SCC(=O)CC(=O)Nc1ccccc1,inactive
18,CCOc1ccc(-n2c(SCC(N)=O)nc3sc4c(c3c2=O)CCN(C)C4)cc1,"inconclusive: 6.51 µM [activator, partial curve, poor fit]"
19,COc1cc(C#N)ccc1OCC(=O)NCc1cccs1,"inconclusive: 29.1 µM [activator, single point]"
20,CCOC(=O)C1CCN(C(=O)COC(=O)/C=C/c2ccccc2)CC1,"inconclusive: 29.1 µM [inhibitor, single point]"
21,O=C(NC1CCCCCC1)C1c2ccccc2C(=O)N1Cc1cccnc1 (stereo not given),inactive

# Not a retest: an excerpt of the list.
row,SMILES,Potency
14,Cc1ccc(CC2CC(=O)N(CCc3ccc4c(c3)OCO4)C2=O)cc1 (stereo not given),"inconclusive: 35.5 µM [inhibitor, single point]"
15,CC(C)[C@H](NC(=O)c1ccc(C(C)(C)C)cc1)C(=O)N1CCN(Cc2ccc3c(c2)OCO3)CC1,active: 16.4 µM
